Laboratory results: patent US20220378827A1 (EMORY UNIVERSITY, published 2022)
These are yes or no findings as the source states them, for the method shown. Some binding calls cover weakened binding; strength is not graded here.

Chains of the proteins cited; added tags and fusions are not shown. Residues count along the entry.
UniProt P06127, residues 25-372: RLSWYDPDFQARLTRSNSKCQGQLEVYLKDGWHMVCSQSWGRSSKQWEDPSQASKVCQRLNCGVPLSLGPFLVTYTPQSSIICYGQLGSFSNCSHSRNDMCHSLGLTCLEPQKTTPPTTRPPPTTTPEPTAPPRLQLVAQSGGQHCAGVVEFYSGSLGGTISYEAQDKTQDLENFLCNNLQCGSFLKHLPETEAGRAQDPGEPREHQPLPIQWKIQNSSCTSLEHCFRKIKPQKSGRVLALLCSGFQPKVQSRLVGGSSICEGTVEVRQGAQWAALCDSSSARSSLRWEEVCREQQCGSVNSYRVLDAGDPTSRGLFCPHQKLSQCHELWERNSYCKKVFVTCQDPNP

Target: CD5-Fc fusion protein (UniProt P06127)
Assay: flow cytometry; CD5-NSCAR-transduced Jurkat T cells stained with CD5-Fc and secondary anti-IgG Fc antibody

B1: CD5-NSCAR (CD5 scFv non-signaling chimeric antigen receptor) (other)
chain: GAPEIQLVQSGGGLVKPGGSVRISCAASGYTFTNYGMNWVRQAPGKGLEWMGWINTHTGEPTYADSFKGRFTFSLDDSKNTAYLQINSLRAEDTAVYFCTRRGYDWYFDVWGQGTTVTVSSGGGGSGGGGSGGGGSDIQMTQSPSSLSASVGDRVTITCRASQDINSYLSWFQQKPGKAPKTLIYRANRLESGVPSRFSGSGSGTDYTLTISSLQYEDFGIYYCQQYDESPWTFGGGTKLEIKASEQKLISEEDLDNEKSNGTIIHVKGKHLCPSPLFPGPSKPFWVLVVVGGVLACYSLLVTVAFIIFWVRSEWPGKVR
For B1, the binding was “binds”.
